PubChem BioAssay AID652259, Drosophila RNAi Screening Center – 2013
In all, the deposit lists about 22,000 reagents; shown is a random part of those that have a named target and a result. In the full data, 233 (1.1%) are marked active. 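Light values are raw, unnormalised plate reads; the ratio scores behind the reporter calls were not deposited.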 No sequences are given here. Not stated in the record: the amount of reagent, the time to read-out, the dose of the treatment.

- Purpose: 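Genome-wide hunt for genes that control Wingless pathway activity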 (primary screen)
- Cells: Drosophila clone 8 imaginal disc epithelial cells
- Reagents: long dsRNA against Drosophila genes
- Conditions: pathway stimulated by co-transfected Wingless expression plasmid
- Detection: 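Dual luciferase reads per well after Wingless plasmid stimulation: reporter firefly light and Renilla control light; activity is firefly divided by Renilla, a ratio not deposited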
- Reading the numbers: firefly reporter light: higher = more Wg reporter light, before normalisation; Renilla control light: higher = more transfected or surviving cells
- Hit rule: 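a knock-down is a candidate when at least two out of four statistical tests show it departing from its plate mean; one test alone signals a weak candidate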
- Meaning of the calls: active = candidate regulator (raises or lowers reporter); inactive = not a candidate

Silencing of DENR [DRSC20151] came out at: firefly reporter light, replicate 1 = 3496; firefly reporter light, replicate 2 = 9418; Renilla control light, replicate 1 = 841; Renilla control light, replicate 2 = 2282; inactive.
CG6610 [DRSC10674] gave firefly reporter light, replicate 1 = 1658; firefly reporter light, replicate 2 = 8656; Renilla control light, replicate 1 = 848; Renilla control light, replicate 2 = 2937; inactive.
Silencing of CG32373 [DRSC08895] gave: reporter change call, replicate 1 = Wg reporter activity lowered; firefly reporter light, replicate 1 = 1924; Renilla control light, replicate 1 = 1056; inactive.
Against RpL6 [DRSC14323], the entry reads firefly reporter light, replicate 1 = 29456; Renilla control light, replicate 1 = 19826; inactive.
Against RpL6 [DRSC22384], the entry reads firefly reporter light, replicate 1 = 7.13e5; firefly reporter light, replicate 2 = 6.67e5; Renilla control light, replicate 1 = 1.28e5; Renilla control light, replicate 2 = 85916; inactive.
For Cpes [DRSC04475], the values are firefly reporter light, replicate 1 = 10011; Renilla control light, replicate 1 = 2604; inactive.
After knock-down of Andorra [DRSC19475] the results were firefly reporter light, replicate 1 = 24291; Renilla control light, replicate 1 = 10288; inactive.
For CG6462 [DRSC10641], the entry reads firefly reporter light, replicate 1 = 1072; firefly reporter light, replicate 2 = 6001; Renilla control light, replicate 1 = 1040; Renilla control light, replicate 2 = 3174; inactive.
CG18130 [DRSC19790] showed firefly reporter light, replicate 1 = 21456; Renilla control light, replicate 1 = 9269; inactive.
Against CG1578 [DRSC19729], the entry reads firefly reporter light, replicate 1 = 2520; firefly reporter light, replicate 2 = 8274; Renilla control light, replicate 1 = 1267; Renilla control light, replicate 2 = 2709; inactive.
For pall [DRSC10364] the deposit lists firefly reporter light, replicate 1 = 2345; Renilla control light, replicate 1 = 968; inactive.
Silencing of Dhc93AB [DRSC16644] came out at: firefly reporter light, replicate 1 = 12036; Renilla control light, replicate 1 = 2626; inactive.
After knock-down of CG14052 [DRSC17907], the record shows firefly reporter light, replicate 1 = 34596; Renilla control light, replicate 1 = 18231; inactive.
Against CG14052 [DRSC18192], the values are firefly reporter light, replicate 1 = 41664; Renilla control light, replicate 1 = 16274; inactive.
knrl [DRSC11892] scored firefly reporter light, replicate 1 = 9730; Renilla control light, replicate 1 = 3612; inactive.
Sytbeta [DRSC10009] gave firefly reporter light, replicate 1 = 7880; Renilla control light, replicate 1 = 3892; inactive.
After knock-down of Sytbeta [DRSC10351], the screen gave firefly reporter light, replicate 1 = 4240; Renilla control light, replicate 1 = 2216; inactive.

Reformatted: entries from further up.
DENR [DRSC20151]
- firefly reporter light, replicate 1: 3496
- firefly reporter light, replicate 2: 9418
- Renilla control light, replicate 1: 841
- Renilla control light, replicate 2: 2282
- Call: inactive

CG6610 [DRSC10674]
- firefly reporter light, replicate 1: 1658
- firefly reporter light, replicate 2: 8656
- Renilla control light, replicate 1: 848
- Renilla control light, replicate 2: 2937
- Call: inactive
